Holding throughout (assay): DAPPL (digital affinity profiling via proximity ligation, sequencing)
What all share (conditions): 10 mM Tris-HCl pH 7.5, 50 mM NaCl, 1 mM DTT, 4% glycerol, room temperature, 30 min; GST-TFs on glutathione beads, 16-mer random dsDNA library, 0.1% …; high values mean tight binding; double strand, one strand shown; scale: fold enrichment (6-mer frequency, TF over GST control)

The chains behind the UniProt entries cited, without tags or fusion partners. Where a name states a change or a piece, a line headed by the entry shows the natural chain unless it says otherwise.
UniProt Q99607: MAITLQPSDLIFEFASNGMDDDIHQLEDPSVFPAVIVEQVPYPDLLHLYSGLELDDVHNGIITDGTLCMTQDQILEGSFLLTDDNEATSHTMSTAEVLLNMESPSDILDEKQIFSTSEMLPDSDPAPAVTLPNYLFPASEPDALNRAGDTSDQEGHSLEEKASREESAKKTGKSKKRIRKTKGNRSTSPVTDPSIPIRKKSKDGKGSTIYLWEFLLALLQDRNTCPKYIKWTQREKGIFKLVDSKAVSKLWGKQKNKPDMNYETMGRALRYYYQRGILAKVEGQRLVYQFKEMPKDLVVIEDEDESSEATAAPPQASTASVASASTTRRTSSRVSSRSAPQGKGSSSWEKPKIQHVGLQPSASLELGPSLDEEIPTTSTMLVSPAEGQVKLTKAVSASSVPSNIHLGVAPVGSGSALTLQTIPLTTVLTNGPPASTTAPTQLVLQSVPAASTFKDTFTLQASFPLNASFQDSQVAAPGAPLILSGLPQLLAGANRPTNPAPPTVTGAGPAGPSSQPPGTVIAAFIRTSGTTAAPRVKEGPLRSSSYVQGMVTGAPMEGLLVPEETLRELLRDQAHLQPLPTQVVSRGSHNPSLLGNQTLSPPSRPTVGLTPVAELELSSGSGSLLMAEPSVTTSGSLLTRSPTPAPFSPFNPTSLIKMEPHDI
UniProt Q01892: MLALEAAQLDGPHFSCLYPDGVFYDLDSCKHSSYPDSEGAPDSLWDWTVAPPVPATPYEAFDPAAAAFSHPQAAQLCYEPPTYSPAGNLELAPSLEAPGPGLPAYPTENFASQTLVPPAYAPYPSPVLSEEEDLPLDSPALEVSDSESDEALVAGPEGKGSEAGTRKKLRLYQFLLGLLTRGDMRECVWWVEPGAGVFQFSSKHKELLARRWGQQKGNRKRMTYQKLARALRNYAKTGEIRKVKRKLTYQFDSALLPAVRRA

In assay [1] the target is T1, FLI1 (UniProt Q01543).
T1 sequence: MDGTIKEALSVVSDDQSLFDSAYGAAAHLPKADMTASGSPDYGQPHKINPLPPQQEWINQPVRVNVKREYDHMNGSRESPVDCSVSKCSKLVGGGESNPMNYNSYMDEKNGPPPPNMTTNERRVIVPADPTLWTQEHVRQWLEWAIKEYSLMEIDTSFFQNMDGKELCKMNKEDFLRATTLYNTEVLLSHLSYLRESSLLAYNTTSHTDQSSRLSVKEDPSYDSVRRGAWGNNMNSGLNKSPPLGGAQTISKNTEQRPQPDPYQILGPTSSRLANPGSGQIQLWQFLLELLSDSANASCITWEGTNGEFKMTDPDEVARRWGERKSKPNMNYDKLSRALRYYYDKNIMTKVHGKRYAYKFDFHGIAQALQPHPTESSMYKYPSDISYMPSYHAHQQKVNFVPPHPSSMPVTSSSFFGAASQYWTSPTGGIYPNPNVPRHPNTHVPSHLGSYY

For assay [2], the target named is ELF4 (UniProt Q99607).
In assay [3] the target is T2, ETV2 (UniProt O00321).
T2 sequence: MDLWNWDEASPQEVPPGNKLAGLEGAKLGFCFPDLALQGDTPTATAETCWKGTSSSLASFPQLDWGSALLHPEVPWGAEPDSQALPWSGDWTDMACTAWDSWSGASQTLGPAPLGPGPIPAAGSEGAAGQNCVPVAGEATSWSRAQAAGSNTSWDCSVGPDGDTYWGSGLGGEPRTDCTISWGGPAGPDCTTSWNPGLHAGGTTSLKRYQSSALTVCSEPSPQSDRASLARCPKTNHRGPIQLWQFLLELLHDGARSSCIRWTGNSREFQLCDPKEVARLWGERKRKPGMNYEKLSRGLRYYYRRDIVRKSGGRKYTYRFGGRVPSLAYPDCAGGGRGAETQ

The target in assay [4] is T3, EHF (UniProt Q9NZC4).
T3 sequence: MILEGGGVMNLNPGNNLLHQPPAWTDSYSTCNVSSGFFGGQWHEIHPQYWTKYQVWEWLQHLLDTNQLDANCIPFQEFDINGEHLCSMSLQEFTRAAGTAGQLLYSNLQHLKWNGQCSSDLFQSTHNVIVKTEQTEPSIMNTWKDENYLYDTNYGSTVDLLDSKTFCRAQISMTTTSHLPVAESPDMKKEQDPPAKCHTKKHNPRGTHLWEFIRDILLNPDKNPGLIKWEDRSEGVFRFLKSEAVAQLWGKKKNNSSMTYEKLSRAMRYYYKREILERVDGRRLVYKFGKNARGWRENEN

Assay [5] addresses SPIB (UniProt Q01892).
The target of assay [6] is T4, ETV3L (UniProt Q6ZN32).
T4 sequence: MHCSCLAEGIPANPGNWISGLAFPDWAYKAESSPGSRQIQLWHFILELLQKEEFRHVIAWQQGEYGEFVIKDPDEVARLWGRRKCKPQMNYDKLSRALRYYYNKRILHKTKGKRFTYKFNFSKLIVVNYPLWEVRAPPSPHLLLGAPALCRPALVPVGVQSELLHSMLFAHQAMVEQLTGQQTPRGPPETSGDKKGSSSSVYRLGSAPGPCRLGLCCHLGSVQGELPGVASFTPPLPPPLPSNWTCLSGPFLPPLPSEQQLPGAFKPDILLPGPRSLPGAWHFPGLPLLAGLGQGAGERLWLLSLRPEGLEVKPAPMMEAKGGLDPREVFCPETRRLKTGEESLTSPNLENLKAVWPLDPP

This is a selection; strong and weak results do not stand in their true shares. At the low end of the ranking the order means little.

As to ATTTAA, the binding signal in assay [1] was found to be 1.24; in assay [2], 1.13; in assay [3], 1.17.
Consider TCATAA, for which the binding signal came to 1.03 in assay [1]; 0.992 in assay [4]; 0.986 in assay [5]; 0.993 in assay [2]; 0.919 in assay [3]; 1 in assay [6].
On to CATAGT, for which the binding signal in assay [1] is 0.986; in assay [4], 0.982; in assay [5] it was 0.993; in assay [2], 0.996; in assay [3], 0.973; in assay [6], 0.952.
Turning to GACTTA, the binding signal in assay [1] was 0.989; in assay [5], 0.969; in assay [2], 0.961; in assay [3], 0.896; in assay [6] it was 0.903.
On to GGCAAT, for which the binding signal in assay [1] was found to be 0.997; in assay [4] it was 0.944; in assay [5], 0.973; in assay [2], 0.958; in assay [3] it was 0.849; in assay [6] it was 0.948.
For TGGCGA, the binding signal in assay [1] turned out to be 0.973; in assay [5], 0.959; in assay [2], 0.936; in assay [3], 0.806; in assay [6] it was 0.989.
For the sequence GGTACT, the binding signal is 1.25 in assay [1], 1.24 in assay [2] and 0.991 in assay [3].
Regarding TGGAAG, the binding signal in assay [1] was determined as 0.902; in assay [4], 0.994; in assay [2] it was 0.935; in assay [3] it was 0.91; in assay [6], 0.939.
On to TACAGA, for which the binding signal in assay [1] stood at 1.08; in assay [2] it was 1.13; in assay [3], 1.25.
As to AGCAAC, the binding signal turned out to be 1 in assay [1], 1.1 in assay [2], 0.941 in assay [3] and 0.974 in assay [6].
On to AGTAAA, for which the binding signal in assay [1] was 0.955; in assay [5] it was 0.994; in assay [2] it was 0.983; in assay [3], 0.94; in assay [6], 0.986.
As for TTTTAT, the binding signal in assay [1] is 1.4; in assay [4], 1.44; in assay [2], 1.4; in assay [6], 1.39.
Consider GGCTAT, for which the binding signal worked out at 0.934 in assay [1], 1.12 in assay [4], 0.98 in assay [2] and 1.07 in assay [6].
Turning to GGGAAA, the binding signal in assay [1] is 0.982; in assay [5], 1.1; in assay [2], 0.992; in assay [3], 0.999; in assay [6], 1.05.
As for AACTGT, the binding signal in assay [1] came to 0.932; in assay [4], 0.911; in assay [5], 0.928; in assay [2] it was 0.918; in assay [6] it was 0.934.
On to TGACCG, for which the binding signal turned out to be 1.62 in assay [1], 1.53 in assay [4], 1.47 in assay [2] and 1.52 in assay [3].
Turning to CGGTTA, the figures for the binding signal in assay [1], in assay [2] and in assay [6] were 1.05, 0.904 and 0.953, respectively.
As to GCGTAT, the binding signal in assay [1] was found to be 0.974; in assay [4] it was 0.992; in assay [2], 0.942; in assay [3], 0.939.
For the sequence GCTAGA, the binding signal is 0.919 in assay [1]; 0.899 in assay [4]; 0.912 in assay [5]; 0.954 in assay [2]; 0.951 in assay [3].
AACGGA: the binding signal in assay [1] stood at 1.05; in assay [4] it was 1.13; in assay [2], 0.994; in assay [3], 1.02.
Regarding GGCACT, the binding signal in assay [1] was 1.24; in assay [2] it was 1.26; in assay [6], 1.27.
In the case of ACACGG, the binding signal was found to be 0.998 in assay [1]; 1.05 in assay [4]; 1.1 in assay [5]; 1.05 in assay [2]; 0.921 in assay [3].
With CTAGCA, the values for the binding signal in assay [1], in assay [2] and in assay [6] were 1.28, 1.3 and 1.28, respectively.
Regarding AGAGCT, the binding signal in assay [1] stood at 0.969; in assay [5], 0.844; in assay [2] it was 0.955; in assay [3] it was 0.894; in assay [6], 0.884.
As for CCACAC, the binding signal came to 1.07 in assay [1], 1.12 in assay [4], 1.1 in assay [2] and 0.941 in assay [3].
Turning to GGATAC, the binding signal in assay [1] came out at 0.98; in assay [2], 0.978; in assay [6], 0.988.
As for GTTGCG, the binding signal stood at 1 in assay [1], 0.959 in assay [4], 0.981 in assay [2] and 1.06 in assay [6].
As for TCATGG, the results for the binding signal in assay [1], in assay [2] and in assay [6] were 1.11, 1.07 and 1.05, respectively.
Consider GAAACC, for which the binding signal in assay [1] worked out at 0.866; in assay [4] it was 1.04; in assay [5] it was 0.957; in assay [2], 0.967; in assay [6], 0.894.
With AGCGGC, the binding signal in assay [1] came out at 0.99; in assay [4], 0.941; in assay [5], 0.878; in assay [2], 0.953; in assay [3], 0.984.
On to TGATGT, for which the binding signal in assay [1] was found to be 1.31; in assay [5] it was 1.41; in assay [2] it was 1.32; in assay [3], 1.26.
Take ATCAAA: the binding signal in assay [1] is 0.987; in assay [4], 0.999; in assay [2], 1.12; in assay [3], 1.11.
On to CGAACC, for which the binding signal was 1.1 in assay [1], 1.19 in assay [4], 1.26 in assay [2] and 1.15 in assay [6].
In the case of AAAATG, the binding signal in assay [1] was 1.17; in assay [2], 1.26; in assay [6], 1.24.
For AGCTCA, the binding signal worked out at 1.07 in assay [1], 1.16 in assay [2] and 1.08 in assay [6].
Take CTCTCC: the binding signal in assay [1] came out at 1.35; in assay [4] it was 1.34; in assay [2], 1.5; in assay [6], 1.44.
Consider AGATAA, for which the binding signal in assay [1], in assay [2] and in assay [6] was 1.09 in each case.
For the sequence ACACAT, the binding signal turned out to be 1.34 in assay [1], 1.35 in assay [4], 1.23 in assay [2] and 1.23 in assay [6].
For the sequence TCATGA, the binding signal was 1.12 in assay [1], 0.957 in assay [5], 1.06 in assay [2] and 0.957 in assay [3].
Regarding CAACGC, the binding signal in assay [1] turned out to be 1.04; in assay [4] it was 1.01; in assay [5] it was 0.966; in assay [2], 1.11; in assay [3], 1.1.
For the sequence CCCAAG, the binding signal in assay [1] was 1.09; in assay [4], 0.983; in assay [5], 0.924; in assay [2], 1.03; in assay [3] it was 0.971.
Take CAGTTC: the binding signal in assay [1] was determined as 0.909; in assay [4], 1.02; in assay [2], 0.973; in assay [3], 0.848.
Turning to ACGGTT, the results for the binding signal in assay [1], in assay [2] and in assay [6] were 1.07, 0.981 and 0.928, respectively.
Turning to GGTGGT, the binding signal was 1.05 in assay [1], 0.9 in assay [4], 0.986 in assay [2] and 0.987 in assay [3].
The like results for GCTAAA were, in that order, 1.06, 1.06, 1.06 and 1.12.
TGGGAT: the binding signal amounted to 1.12 in assay [1], 1.2 in assay [2] and 1.15 in assay [6].
As for CGAACG, the binding signal in assay [1] was 0.914; in assay [5], 0.991; in assay [2] it was 0.958; in assay [3], 1.09; in assay [6], 0.983.
On the same counts, the results for TATGAG are 0.962, 0.986, 0.979, 0.878 and 0.959.
Consider CCCCTA, for which the binding signal in assay [1] is 0.985; in assay [5], 1.08; in assay [2], 1.2; in assay [3] it was 1.06.
On the same counts, the results for CCTCAG are 1.17, 1.35, 1.3 and 1.37.
Regarding TCCCGT, the binding signal in assay [1] is 1.24; in assay [3] it was 1.29.
The like results for GCTGCT were, in that order, 1.32 and 1.25.
On the same counts, the results for GAAGCG are 1.37 and 1.19.

The values are drawn from PMC7862700.
